Results published in PubChem BioAssay AID1487 (National Center for Advancing Translational Sciences (NCATS), 2009).
The list shows a part of the results. These are further read-outs of the screen, such as a control signal, another cell line or another target. No call is given for them. Most of these compounds were active or inconclusive in the main read-out, so they are no random draw. Potencies come from curve fits of mixed quality, noted in brackets.

Test: qHTS Assay for Modulators of Lamin A Splicing
Conditions: HeLa LMNA splicing GFP/RFP minigene ratio, 48 h
Procedure, shortened: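 S3 HeLa cells stably expressing lamin A-EGFP splicing minigene plus DsRed2, 600 cells/well, 48 h compound exposure at 37C. Laser-scanning cytometry; analysed as GFP (500-530 nm)/RFP (575-640 nm) total intensity ratio; 0.5% DMSO vehicle.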

[1] = measured here: GFP splicing reporter channel
[2] = measured here: RFP viability control channel

Row | Structure (SMILES) | AC50 [1] | AC50 [2]
1 | NS(=O)(=O)c1ccc(CNC(=O)CSc2ccccc2)cc1 | 20 µM [falling, partial curve, poor fit] | 1.12 µM [falling, full curve, poor fit]
2 | O=C(CN1CCC(C(=O)c2ccc(F)cc2)CC1)Nc1ccc(F)cc1 | – | 17.8 µM [rising, single point]
3 | CCOc1cc(N2CCOCC2)c(OCC)cc1NC(=O)COc1cccc2cccnc12 | – | 31.6 µM [rising, single point]
4 | COC(=O)c1c(-c2ccc(Cl)cc2)noc1N1CCN(c2ccc(OC)cc2)CC1 | 10 µM [falling, partial curve] | 35.5 µM [falling, single point]
5 | CC(=O)c1ccc(NC(=O)C2CC(=O)N(C(C)C)C2)cc1 (stereo unspecified) | – | 35.5 µM [falling, single point]
6 | CCCOc1ccc(C(=O)c2nc3c(n2O)CCCC3)cc1 | – | 12.6 µM [rising, partial curve]
7 | CCOC(=O)c1cnc(SC)nc1Oc1cccc(NS(=O)(=O)c2ccc(Cl)cc2)c1 | – | 0.0891 µM [rising, full curve, poor fit]
8 | CCCc1cc(-c2nc(-c3ccc(Cl)cc3)cs2)ccn1 | 25.1 µM [rising, single point] | 31.6 µM [rising, single point]
9 | CN(C)/C=N/c1[nH]ncc1C#N | 3.98 µM [rising, partial curve, poor fit] | –
10 | COc1ccc(C(=O)N/N=C/c2cccc3cccnc23)cc1 | 35.5 µM [falling, single point] | 35.5 µM [falling, single point]
11 | Cc1nn(-c2ccccc2)c(Cl)c1CN(C(=O)CCl)c1ccc(Cl)cc1 | 12.6 µM [falling, partial curve] | 17.8 µM [falling, single point]
12 | COc1ccc(CCNC(=O)C(=O)Nc2ccc3c(c2)OCCO3)cc1OC | 2 µM [rising, full curve, poor fit] | 0.02 µM [rising, full curve, poor fit]
13 | O=C(Cn1c(=O)nc(-c2ccccc2)c2ccccc21)Nc1ccc(Cl)c(C(F)(F)F)c1 | 3.98 µM [rising, full curve] | –
14 | Cc1[nH]c2ccccc2c1C(c1ccccn1)N1CCC(C(N)=O)CC1 (stereo unspecified) | 15.8 µM [rising, single point] | 14.1 µM [rising, single point]
15 | Cc1ccc(Cn2ccc(NC(=O)c3cc(CC(C)C)on3)n2)cc1 | – | 12.6 µM [rising, partial curve]
16 | COC(=O)CCCC1=CC2=CC(=O)C(C)(OC(=O)c3cccs3)C(=O)C2=CN1C(CO)CO (stereo unspecified) | – | 0.282 µM [falling, partial curve]
17 | COCCNC(=O)C(c1ccc(C)o1)N(C(=O)c1snc(C(N)=O)c1N)c1cc(C)cc(C)c1 (stereo unspecified) | – | 10 µM [rising, single point]
18 | Cn1c(=O)c2c(SCC(=O)N3CCc4ccccc43)nc(-c3ccccc3Cl)nc2n(C)c1=O | 0.158 µM [rising, full curve, poor fit] | –
19 | Cc1ccc(C)c(NC(=O)c2ccc3c(c2)N(Cc2ccc(F)cc2)C(=O)CS3=O)c1 (stereo unspecified) | 7.08 µM [rising, partial curve] | 2.24 µM [rising, partial curve]
20 | c1ccc2c(c1)ncn2CCCCOc1ccc2c(c1)CCC2 | – | 10 µM [rising, single point]
21 | CN(CCO)c1c2c(nc3cc(-c4cccc(F)c4)nn13)CCCC2 | 3.98 µM [rising, full curve] | 4.47 µM [rising, full curve]
22 | COc1ccc(OC)c(NC(=O)c2cc(-c3cc(Cl)ccc3O)n[nH]2)c1 | 12.6 µM [rising, partial curve] | 35.5 µM [rising, single point]
23 | Cc1ccc(C)n1-c1ccc(C(=O)/C=C/N(C)C)cc1 | 1.12 µM [rising, partial curve, poor fit] | 3.98 µM [rising, single point]
24 | CCC12CN3CCN(CC(C3)/C1=N\NC(=O)c1ccc(C(C)(C)C)cc1)C2 | – | 3.16 µM [rising, full curve, poor fit]
25 | Brc1cc(Br)c2ncnc(N3CCCCC3)c2c1 | – | 35.5 µM [rising, single point]
26 | CCOC(=O)CCn1cc(F)c(=O)[nH]c1=O | – | 0.0141 µM [falling, full curve, poor fit]
27 | C/C(=N\NC(=O)C(c1ccccc1)c1ccccc1)c1ccccn1 | 5.01 µM [rising, full curve] | 6.31 µM [rising, full curve]
28 | Cc1cccc(-c2nsc(SCC(=O)NCc3ccc4c(c3)OCO4)n2)c1 | 35.5 µM [rising, single point] | 20 µM [rising, single point]

Arranged by number of heavy atoms (descending): 3 of the compounds above
Row | Structure (SMILES) | AC50 [1] | AC50 [2]
22 | COc1ccc(OC)c(NC(=O)c2cc(-c3cc(Cl)ccc3O)n[nH]2)c1 | 12.6 µM [rising, partial curve] | 35.5 µM [rising, single point]
21 | CN(CCO)c1c2c(nc3cc(-c4cccc(F)c4)nn13)CCCC2 | 3.98 µM [rising, full curve] | 4.47 µM [rising, full curve]
23 | Cc1ccc(C)n1-c1ccc(C(=O)/C=C/N(C)C)cc1 | 1.12 µM [rising, partial curve, poor fit] | 3.98 µM [rising, single point]

Further structures

Row | Structure (SMILES) | AC50 [1] | AC50 [2]
29 | CC1CCN(c2nc3ccc(C(=O)N4CCN(Cc5ccccc5)CC4)cc3s2)CC1 | – | 12.6 µM [rising, single point]
30 | COc1ccc(N2CCN(C(=O)CCCCCn3c(=O)[nH]c4ccsc4c3=O)CC2)cc1 | – | 15.8 µM [falling, single point]
31 | COCCn1c(SCc2nc3ccccc3s2)nc2ccccc21 | – | 11.2 µM [rising, single point]
32 | COc1ccc(NC(=O)CSc2nc3c(c(=O)n2-c2ccc(C)cc2)SCC3)c(OC)c1 | 31.6 µM [rising, single point] | 22.4 µM [rising, single point]
33 | Cc1noc(C)c1-c1nccc(Nc2ccc(F)cc2)n1 | 5.01 µM [falling, partial curve, poor fit] | –
34 | O=S(=O)(NCCOC12CC3CC(CC(C3)C1)C2)c1cccc2nsnc12 | – | 12.6 µM [rising, single point]
35 | COc1ccc(N2C(N)=C(C#N)C(c3ccsc3)C3=C2CCCC3=O)c(OC)c1 (stereo unspecified) | – | 7.08 µM [rising, partial curve]
36 | O=C1C=C(NCc2ccco2)CC(c2ccc(Cl)cc2)C1 (stereo unspecified) | 12.6 µM [rising, single point] | 20 µM [rising, single point]
37 | CCCCS(=O)(=O)N1CCc2nc(-c3ccc(OC)cc3C)c3c(c2C1)CO[C@@H](c1ccccc1)C3 | – | 5.62 µM [falling, single point]
38 | Cc1onc(-c2ccccc2)c1C(=O)N/N=C/c1cc(Br)c(Br)o1 | – | 35.5 µM [rising, single point]
39 | C=CCNC(=O)C1=NOC(CNC(=O)c2c(-c3ccccc3Cl)noc2C)C1 (stereo unspecified) | – | 11.2 µM [rising, single point]
40 | COc1ccc(OC)c(Nc2cc(C)nc3nc(C)nn23)c1 | – | 17.8 µM [rising, single point]
41 | CC1c2[nH]c3ccccc3c2CCN1C(=O)Nc1ccccc1 (stereo unspecified) | – | 35.5 µM [rising, single point]
42 | CC(CN(C)C)CN1c2ccccc2CCc2ccccc21 (stereo unspecified) | 12.6 µM [falling, partial curve, poor fit] | 17.8 µM [falling, partial curve]
43 | Cc1ccnc(NS(=O)(=O)c2ccc(NC(=O)c3ccc(S(=O)(=O)N4CCOCC4)cc3)cc2)n1 | – | 0.224 µM [falling, full curve, poor fit]
44 | Cc1ccc(C(=O)N2CCN(S(=O)(=O)c3ccccc3[N+](=O)[O-])CC2)o1 | 0.0316 µM [falling, full curve, poor fit] | 0.0316 µM [falling, full curve, poor fit]
45 | COCCOc1nc2c(c(=O)n(C)c(=O)n2C)n1CCc1ccccc1 | – | 35.5 µM [rising, single point]
46 | Cc1ccc(C2=NN3C(C2)c2ccccc2OC32C(=O)Nc3ccccc32)cc1 (stereo unspecified) | 25.1 µM [falling, single point] | 31.6 µM [falling, single point]
47 | COc1ccc(-c2noc(CN3CCN(c4ccccc4)CC3)n2)cc1 | – | 25.1 µM [rising, single point]
48 | COc1cc(/C=N/NC(=O)c2ccc(CSc3nc4ccccc4[nH]3)cc2)ccc1O | 35.5 µM [falling, partial curve, poor fit] | –
49 | O=C(COc1ccc(/C=N/NS(=O)(=O)c2ccccc2)cc1)NCCc1ccccc1 | – | 14.1 µM [rising, partial curve]
50 | Cc1cccc(OCC(=O)Nc2ccc(N3CCN(C(=O)c4ccccc4)CC3)cc2)c1 | – | 11.2 µM [rising, single point]
51 | CCNS(=O)(=O)c1ccc(NC(=O)Nc2ccccc2OC)cc1 | 35.5 µM [falling, single point] | 35.5 µM [falling, single point]
52 | CCCCCCCCN[C@@H](C)[C@H](O)c1ccc(SC(C)C)cc1 | 12.6 µM [falling, partial curve] | 8.91 µM [falling, single point]
53 | CCc1ccccc1NC(=O)Nc1cc(C(=O)NCc2ccc(C)cc2)ccc1N1CCCC1 | 7.94 µM [falling, partial curve] | 8.91 µM [falling, partial curve, poor fit]
54 | S=C(Nc1cccnc1)Nc1ccccc1Br | 31.6 µM [rising, single point] | –
55 | O=C(CNc1ccccc1)Nc1ccc(F)cc1 | – | 0.0141 µM [rising, full curve, poor fit]
